Laboratory results: the supplement of paper PMC4604168 (melanoma cell lines)
This is one part of the list. Many values rest on one well or one pass, so single values are uncertain.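 Cells were imaged in 1,536-well plates, and nuclei stained with an antibody against cleaved PARP were counted against all DNA-stained nuclei to give the apoptosis fraction. Screening doses were chosen to leave most cells alive, and resting and induced cleaved-PARP levels differ strongly between cell lines.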

How the values were obtained:
Test in all cases: cleaved PARP positive nuclei fraction relative to DMSO control; melanoma cells; higher = more apoptosis
Conditions in all cases: library dose: low library concentration; 72 h
501Mel = system: 501Mel
A101D = system: A101D
A2058 = system: A2058
A375 = system: A375
C32 = system: C32
CBRC008 = system: CBRC008 (line from a melanoma biopsy)
CBRC014 = system: CBRC014 (line from a melanoma biopsy)
CBRC016 = system: CBRC016 (line from a melanoma biopsy)
CBRC017 = system: CBRC017 (line from a melanoma biopsy)
CBRC034 = system: CBRC034 (line from a melanoma biopsy)
COLO792 = system: COLO792
COLO800 = system: COLO800
COLO829 = system: COLO829
G361 = system: G361
IPC-298 = system: IPC-298
IST-MEL1 = system: IST-MEL1
LB2518-MEL = system: LB2518-MEL
LOXIMVI = system: LOXIMVI
MEL-HO = system: MEL-HO

Row | SMILES | cleaved PARP positive nuclei fraction (501Mel) [%] | cleaved PARP positive nuclei fraction (A101D) [%] | cleaved PARP positive nuclei fraction (A2058) [%] | cleaved PARP positive nuclei fraction (A375) [%] | cleaved PARP positive nuclei fraction (C32) [%] | cleaved PARP positive nuclei fraction (CBRC008) [%] | cleaved PARP positive nuclei fraction (CBRC014) [%] | cleaved PARP positive nuclei fraction (CBRC016) [%] | cleaved PARP positive nuclei fraction (CBRC017) [%] | cleaved PARP positive nuclei fraction (CBRC034) [%] | cleaved PARP positive nuclei fraction (COLO792) [%] | cleaved PARP positive nuclei fraction (COLO800) [%] | cleaved PARP positive nuclei fraction (COLO829) [%] | cleaved PARP positive nuclei fraction (G361) [%] | cleaved PARP positive nuclei fraction (IPC-298) [%] | cleaved PARP positive nuclei fraction (IST-MEL1) [%] | cleaved PARP positive nuclei fraction (LB2518-MEL) [%] | cleaved PARP positive nuclei fraction (LOXIMVI) [%] | cleaved PARP positive nuclei fraction (MEL-HO) [%]
1 | CC(C)C[C@H](NC(=O)[C@H](Cc1ccccc1)NC(=O)c1cnccn1)B(O)O [Bortezomib] + Cc1nc(Nc2ncc(C(=O)Nc3c(C)cccc3Cl)s2)cc(N2CCN(CCO)CC2)n1 [dasatanib] (first compound 0.001 µM, partner dose 0.004 µM) | 447 | 817 | 72.9 | 74.7 | 333 | 271 | 246 | 182 | 301 | 527 | 137 | 124 | 292 | 3180 | 174 | 77.6 | 340 | 89.1 | 76.8
2 | Nc1nc(F)nc2c1ncn2[C@@H]1O[C@H](CO)[C@@H](O)[C@@H]1O [fludarabine] + CC(=O)c1c(C)c2cnc(Nc3ccc(N4CCNCC4)cn3)nc2n(C2CCCC2)c1=O [palbociclib] (first compound 0.2 µM, partner dose 0.04 µM) | 15000 | 172 | 94.3 | 4320 | 104 | 53 | 113 | 96.6 | 184 | 74.1 | 75.7 | 80.7 | 111 | 276 | 108 | 76.6 | 73.8 | 261 | 190
3 | C[C@@H](Oc1cc(-c2cnn(C3CCNCC3)c2)cnc1N)c1c(Cl)ccc(F)c1Cl [Crizotinib] + Nc1cccc2c1CN(C1CCC(=O)NC1=O)C2=O [lenalidomide] (first compound 0.2 µM, partner dose 1 µM) | 217 | 98 | 137 | 77.9 | 83.2 | 28.1 | 88.7 | 86.8 | 77.4 | 90.3 | 162 | 111 | 107 | 88.6 | 83.4 | 129 | 50.5 | 245 | 193
4 | Nc1ccn([C@@H]2O[C@H](CO)[C@@H](O)C2(F)F)c(=O)n1 [gemcitabine] + Nc1nc(F)nc2c1ncn2[C@@H]1O[C@H](CO)[C@@H](O)[C@@H]1O [fludarabine] (first compound 0.0004 µM, partner dose 0.2 µM) | 12500 | 114 | 241 | 4580 | 90.2 | 31.7 | 194 | 336 | 174 | 122 | 100 | 130 | 95.3 | 110 | 153 | 66.9 | 102 | 92.3 | 114
5 | CNC(=O)c1cc(Oc2ccc(NC(=O)Nc3ccc(Cl)c(C(F)(F)F)c3)cc2)ccn1 [sorafenib] + C[C@]1(c2nc3c(C(N)=O)cccc3[nH]2)CCCN1 [Veliparib] (first compound 0.4 µM, partner dose 1.4 µM) | 81.5 | 119 | 174 | 88.4 | 183 | 26.2 | 81.4 | 88.4 | 111 | 103 | 68.2 | 99.8 | 130 | 67.9 | 60 | 99.2 | 49.7 | 60.6 | 230
6 | Nc1ccn([C@@H]2O[C@H](CO)[C@@H](O)C2(F)F)c(=O)n1 [gemcitabine] + C[C@]1(c2nc3c(C(N)=O)cccc3[nH]2)CCCN1 [Veliparib] (first compound 0.0004 µM, partner dose 1.4 µM) | 64.4 | 316 | 133 | 145 | 137 | 62.2 | 416 | 165 | 115 | 167 | 169 | 150 | 111 | 170 | 102 | 97.1 | 110 | 58.6 | 98.1
7 | Cc1cc(Nc2cc(N3CCN(C)CC3)nc(/C=C/c3ccccc3)n2)n[nH]1 + OCc1c[nH]c2ccccc12 [Indole-3-carbinol] (first compound 0.04 µM, partner dose 0.8 µM) | 251 | 41.9 | 58 | 170 | 120 | 49.5 | 87.4 | 75 | 88 | 40.7 | 117 | 101 | 45 | 84.5 | 86.4 | 127 | 243 | 46.3 | 65.3
8 | CO[C@H]1C[C@@H]2CC[C@@H](C)[C@@](O)(O2)C(=O)C(=O)N2CCCC[C@H]2C(=O)O[C@H]([C@H](C)C[C@@H]2CC[C@@H](OCCO)[C@H](OC)C2)CC(=O)[C@H](C)/C=C(\C)[C@@H](O)[C@@H](OC)C(=O)[C@H](C)C[C@H](C)/C=C/C=C/C=C/1C [everolimus] + C=C(c1ccc(C(=O)O)cc1)c1cc2c(cc1C)C(C)(C)CCC2(C)C [Bexarotene] (first compound 0.02 µM, partner dose 2 µM) | 729 | 39.3 | 174 | 1500 | 85.9 | 118 | 97.8 | 106 | 98 | 97.5 | 235 | 78.2 | 113 | 229 | 118 | 147 | 119 | 146 | 188
9 | Nc1ncn([C@H]2C[C@H](O)[C@@H](CO)O2)c(=O)n1 [decitabine] + Cn1nnc2c(C(N)=O)ncn2c1=O [temozolomide] (first compound 0.1 µM, partner dose 2 µM) | 73.2 | 100 | 238 | 48.1 | 57.9 | 248 | 124 | 232 | 100 | 45 | 106 | 108 | 217 | 135 | 249 | 37.4 | 239 | 133 | 158
10 | O=C(O)c1ccc2c(c1)nc(Nc1cccc(Cl)c1)c1ccncc12 + COc1ccc(Cl)c(Nc2nc3ccccc3nc2NS(=O)(=O)c2cccc(NC(=O)C(C)(C)N)c2)c1 [XL147] (first compound 0.4 µM, partner dose 0.8 µM) | 104 | 97.9 | 180 | 161 | 272 | 49.6 | 187 | 242 | 242 | 159 | 69.8 | 75.7 | 113 | 131 | 101 | 139 | 106 | 132 | 147
11 | Cn1c(=O)n(-c2ccc(C(C)(C)C#N)cc2)c2c3cc(-c4cnc5ccccc5c4)ccc3ncc21 + COc1ccc(Cl)c(Nc2nc3ccccc3nc2NS(=O)(=O)c2cccc(NC(=O)C(C)(C)N)c2)c1 [XL147] (first compound 0.004 µM, partner dose 0.8 µM) | 120 | 53.5 | 90.5 | 138 | 84.9 | 192 | 202 | 120 | 117 | 508 | 135 | 49 | 220 | 92.7 | 140 | 223 | 106 | 182 | 222
12 | CCCS(=O)(=O)Nc1ccc(F)c(C(=O)c2c[nH]c3ncc(Cl)cc23)c1F + C#Cc1cccc(Nc2ncnc3cc(OCCOC)c(OCCOC)cc23)c1 [erlotinib] (first compound 0.08 µM, partner dose 0.8 µM) | 58.7 | 159 | 141 | 205 | 70.6 | 37.1 | 101 | 40.7 | 88.6 | 70.7 | 101 | 134 | 84.4 | 157 | 94.2 | 108 | 100 | 50.4 | 148
13 | CC(C)C[C@H](NC(=O)[C@H](Cc1ccccc1)NC(=O)c1cnccn1)B(O)O [Bortezomib] + C=C(c1ccc(C(=O)O)cc1)c1cc2c(cc1C)C(C)(C)CCC2(C)C [Bexarotene] (first compound 0.001 µM, partner dose 2 µM) | 1180 | 847 | 92.1 | 124 | 181 | 475 | 384 | 335 | 178 | 1870 | 96.7 | 139 | 227 | 5390 | 110 | 136 | 655 | 192 | 106
14 | Cn1c(=O)n(-c2ccc(C(C)(C)C#N)cc2)c2c3cc(-c4cnc5ccccc5c4)ccc3ncc21 + C=CCNC1=C2C[C@@H](C)C[C@H](OC)[C@H](O)[C@@H](C)/C=C(\C)[C@H](OC(N)=O)[C@@H](OC)/C=C\C=C(/C)C(=O)NC(=CC1=O)C2=O [Tanespimycin] (first compound 0.004 µM, partner dose 0.002 µM) | 68 | 54.9 | 35.1 | 105 | 86.4 | 119 | 81 | 38.7 | 98.5 | 96.4 | 32.1 | 112 | 83.4 | 78 | 83.9 | 139 | 122 | 136 | 83.6
15 | C=C(c1ccc(C(=O)O)cc1)c1cc2c(cc1C)C(C)(C)CCC2(C)C [Bexarotene] + OCc1c[nH]c2ccccc12 [Indole-3-carbinol] (first compound 2 µM, partner dose 0.8 µM) | 140 | 96.9 | 130 | 59.1 | 65.7 | 52.3 | 104 | 172 | 163 | 33.7 | 183 | 81.4 | 116 | 106 | 40.7 | 426 | 106 | 110 | 121
16 | CCCS(=O)(=O)Nc1ccc(F)c(C(=O)c2c[nH]c3ncc(Cl)cc23)c1F + Cn1c(Nc2ccc(C(F)(F)F)cc2)nc2cc(Oc3ccnc(-c4ncc(C(F)(F)F)[nH]4)c3)ccc21 [CHIR265] (first compound 0.08 µM, partner dose 0.08 µM) | 74.8 | 300 | 152 | 454 | 89.5 | 130 | 111 | 112 | 104 | 71.9 | 158 | 55.9 | 99.9 | 163 | 178 | 72.5 | 74.6 | 37.5 | 101

Some of the entries above, set out differently.
Row	SMILES	cleaved PARP positive nuclei fraction (501Mel) [%]	cleaved PARP positive nuclei fraction (A101D) [%]	cleaved PARP positive nuclei fraction (A2058) [%]	cleaved PARP positive nuclei fraction (A375) [%]	cleaved PARP positive nuclei fraction (C32) [%]	cleaved PARP positive nuclei fraction (CBRC008) [%]	cleaved PARP positive nuclei fraction (CBRC014) [%]	cleaved PARP positive nuclei fraction (CBRC016) [%]	cleaved PARP positive nuclei fraction (CBRC017) [%]	cleaved PARP positive nuclei fraction (CBRC034) [%]	cleaved PARP positive nuclei fraction (COLO792) [%]	cleaved PARP positive nuclei fraction (COLO800) [%]	cleaved PARP positive nuclei fraction (COLO829) [%]	cleaved PARP positive nuclei fraction (G361) [%]	cleaved PARP positive nuclei fraction (IPC-298) [%]	cleaved PARP positive nuclei fraction (IST-MEL1) [%]	cleaved PARP positive nuclei fraction (LB2518-MEL) [%]	cleaved PARP positive nuclei fraction (LOXIMVI) [%]	cleaved PARP positive nuclei fraction (MEL-HO) [%]
1	CC(C)C[C@H](NC(=O)[C@H](Cc1ccccc1)NC(=O)c1cnccn1)B(O)O [Bortezomib] + Cc1nc(Nc2ncc(C(=O)Nc3c(C)cccc3Cl)s2)cc(N2CCN(CCO)CC2)n1 [dasatanib] (first compound 0.001 µM, partner dose 0.004 µM)	447	817	72.9	74.7	333	271	246	182	301	527	137	124	292	3180	174	77.6	340	89.1	76.8
2	Nc1nc(F)nc2c1ncn2[C@@H]1O[C@H](CO)[C@@H](O)[C@@H]1O [fludarabine] + CC(=O)c1c(C)c2cnc(Nc3ccc(N4CCNCC4)cn3)nc2n(C2CCCC2)c1=O [palbociclib] (first compound 0.2 µM, partner dose 0.04 µM)	15000	172	94.3	4320	104	53	113	96.6	184	74.1	75.7	80.7	111	276	108	76.6	73.8	261	190
